Measurements published in PubChem BioAssay AID588590 (National Center for Advancing Translational Sciences (NCATS), 2011).
Out of some 390,000 compounds screened, about 4,000 (1%) were called active. The inconclusive results got no clear call from the source; some entries with a clear call stand among them for comparison. The call rests on the fitted dose curve; in most records, active means well fitted inhibition curve with a large enough effect; inconclusive means small, poorly fitted or top-dose-only effect, or another doubt; inactive means no such curve, though single readings can be large or run the other way. Where the call is inconclusive, the potency comes from a doubtful curve fit.

By UniProt entry, the sequences of proteins in these tests, tags left out. Where a name states a change or a piece, a line headed by the entry shows the natural chain unless it says otherwise.
UniProt Q9UNA4: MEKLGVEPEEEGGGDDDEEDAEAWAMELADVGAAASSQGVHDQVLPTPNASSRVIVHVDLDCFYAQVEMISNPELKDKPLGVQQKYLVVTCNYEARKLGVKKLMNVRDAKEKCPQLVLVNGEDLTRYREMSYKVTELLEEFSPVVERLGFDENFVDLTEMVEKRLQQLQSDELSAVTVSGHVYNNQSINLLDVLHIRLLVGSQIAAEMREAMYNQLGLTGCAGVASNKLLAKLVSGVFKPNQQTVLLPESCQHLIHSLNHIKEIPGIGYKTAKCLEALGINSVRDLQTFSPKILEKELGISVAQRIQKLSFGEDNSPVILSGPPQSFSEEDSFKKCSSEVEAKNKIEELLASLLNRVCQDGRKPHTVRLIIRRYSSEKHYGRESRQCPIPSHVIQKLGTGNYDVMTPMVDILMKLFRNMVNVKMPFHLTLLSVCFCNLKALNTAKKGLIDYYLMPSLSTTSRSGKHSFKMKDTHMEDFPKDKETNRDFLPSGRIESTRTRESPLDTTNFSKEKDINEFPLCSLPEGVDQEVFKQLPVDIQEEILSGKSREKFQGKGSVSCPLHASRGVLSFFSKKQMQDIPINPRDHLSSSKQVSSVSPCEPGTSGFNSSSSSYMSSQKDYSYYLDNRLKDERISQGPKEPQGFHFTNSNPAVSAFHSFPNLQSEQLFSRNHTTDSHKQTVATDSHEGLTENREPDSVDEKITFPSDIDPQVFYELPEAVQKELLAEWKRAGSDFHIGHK

Each molecule was assayed against DNA polymerase iota (Homo sapiens) (UniProt Q9UNA4) (assay: qHTS for Inhibitors of Polymerase Iota). Conditions: Pol iota fluorescent replication assay, 10 min; series mostly up to 115 µM; activity, negative = inhibition: at the top concentration.
Summary of the method: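 Pol iota at 10 nM preincubated 15 min with compounds at room temperature; reaction started with fluorescent substrate, 50 nM final. Fluorescence read kinetically at 0 and 10 min; buffer-only wells as negative control.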
Potency means the concentration at half of the fitted maximal effect.

Potency, inconclusive:
O=C1NC[C@@H](Cc2cccc3ccccc23)N(CCC23CC4CC(CC(C4)C2)C3)C1=O 50.1 µM [inhibitor, partial curve, poor fit]
Cc1cccc(NC(=S)NC(=O)c2cc(-c3ccccc3)nc3ccccc23)c1 89.1 µM [inhibitor, single point]
COc1ccc(N2CCN(C(=O)COC(=O)/C=C/c3ccc(C(F)(F)F)cc3)CC2)cc1 56.2 µM [inhibitor, partial curve, poor fit]
COc1ccccc1-c1nnc(SCC(=O)c2ccc(F)cc2)n1-c1ccccc1 89.1 µM [inhibitor, single point]
CC(C)NCc1nnc(-c2ccccc2Cl)o1 25.1 µM [inhibitor, full curve, poor fit]
O=C(O)CCCC(=O)Nc1ccccc1C(=O)N1CCOCC1 89.1 µM [inhibitor, single point]
Cc1nn(C)c(C)c1NC(=S)Nc1ccc(S(=O)(=O)Nc2ncccn2)cc1 89.1 µM [inhibitor, single point]
CCCSc1nc2c(cnn2-c2ccc(C)cc2)c(=O)[nH]1 0.631 µM [inhibitor, full curve, poor fit]
COc1cccc(N(CC(=O)NCCSc2ccccn2)S(=O)(=O)c2ccccc2)c1 89.1 µM [inhibitor, single point]
CC(=O)Nc1cc2c3ccccc3n(C)c2cc1[N+](=O)[O-] 50.1 µM [inhibitor, partial curve, poor fit]
COc1cccc(OCCOc2ccc(/C=C3\C(=N)N4N=C(S(C)(=O)=O)SC4=NC3=O)cc2OC)c1 22.4 µM [inhibitor, full curve]
COc1ccc2c(c1)OC(=O)CC2c1ccccc1OC (stereo unspecified) 50.1 µM [inhibitor, partial curve, poor fit]
COc1ccc(Cl)cc1C(=O)n1cnc2ccccc21 5.01 µM [inhibitor, partial curve, poor fit]
CC(=O)N1c2ccc(S(=O)(=O)NCC3CCC(C(=O)NC4CCCCC4)CC3)cc2CC1C (stereo unspecified) 56.2 µM [inhibitor, single point]
Cc1ccccc1C(=O)Nc1ccc(N2CCCC2)cc1 14.1 µM [inhibitor, partial curve, poor fit]

Arranged by heavy-atom count (low to high): 3 of the compounds above.
Potency, inconclusive:
COc1ccc(Cl)cc1C(=O)n1cnc2ccccc21 5.01 µM [inhibitor, partial curve, poor fit]
Cc1nn(C)c(C)c1NC(=S)Nc1ccc(S(=O)(=O)Nc2ncccn2)cc1 89.1 µM [inhibitor, single point]
COc1cccc(OCCOc2ccc(/C=C3\C(=N)N4N=C(S(C)(=O)=O)SC4=NC3=O)cc2OC)c1 22.4 µM [inhibitor, full curve]

Following part.

activity, negative = inhibition, inactive:
COc1cccc(OCC(=O)Nc2nnc3n2CCS3)c1 3.36%
